PubChem BioAssay AID485314 (National Center for Advancing Translational Sciences (NCATS), 2010)
In all, about 340,000 compounds went through this assay and about 4,500 (1.3%) were called active. The shares of active, inactive and inconclusive entries below differ from those in the screen. The call rests on the fitted dose curve; in most records, active means well fitted inhibition curve with a large enough effect; inconclusive means small, poorly fitted or top-dose-only effect, or another doubt; inactive means no such curve, though single readings can be large or run the other way. A potency beside an inconclusive call is a rough fit, not a confirmed value.

target: DNA polymerase beta (Homo sapiens) (UniProt P06746); test: qHTS Assay for Inhibitors of DNA Polymerase Beta; details: Pol beta primer extension/strand displacement, fluorescence kinetic; activity change, negative = inhibition: at 114 µM (top of the series)
Outline: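 Homogeneous kinetic assay of primer extension and strand displacement by 10 nM Pol beta, preincubated 15 min at room temperature with compound before 50 nM substrate (final) was added. Read at 0 and 10 min; four-parameter Hill fit.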
On the % scale 0 is the no-effect control and ±100 the full control effect; potency means the concentration at half of the fitted maximal effect.

Potency, inconclusive:
CCOC(=O)c1c(-c2ccccc2)csc1NC(=S)NC(=O)c1ccccc1 89.1 µM [inhibitor, single point]
CCOCCOC(=O)C1=C(C)NC2=C(C(=O)CC(c3cccs3)C2)C1c1ccsc1 (centres undefined) 35.5 µM [inhibitor, full curve]
Cc1cc(C)cc(NC(=O)Nc2cccc(S(N)(=O)=O)c2)c1 89.1 µM [inhibitor, single point]
O=C(c1ccco1)N1CCN(/C(=N/S(=O)(=O)c2cccs2)c2ccccc2Cl)CC1 100 µM [inhibitor, single point]
Oc1ccc2ccccc2c1N=Nc1nccs1 28.2 µM [inhibitor, single point]
O=C(O)c1cc(=O)[nH]c2ccc(S(=O)(=O)Nc3ccc(F)cc3)cc12 22.4 µM [inhibitor, partial curve]
Cn1c(Cn2nnc3ccccc32)nnc1SCC(=O)N1c2ccccc2CCc2ccccc21 0.141 µM [inhibitor, full curve, poor fit]
O=C(CSc1nc2cc(C(=O)O)ccc2c(=O)n1-c1ccc(F)cc1)Nc1ccc(F)c(F)c1F 89.1 µM [inhibitor, single point]
O=C(Cc1cnn(-c2ccccc2)c1)c1ccc(O)c(O)c1O 0.562 µM [inhibitor, full curve]
Cc1cc(=O)oc2cc(OCC(=O)Nc3ccc(O)c(C(=O)O)c3)ccc12 2 µM [inhibitor, partial curve]
CC(=O)Oc1ccc(/C=C2\C=C(c3ccc(C)cc3)OC2=O)cc1 35.5 µM [inhibitor, single point]
O=C(CSc1nc2ccccc2c(=O)n1-c1ccc(F)cc1)Nc1cc(S(=O)(=O)N2CCOCC2)ccc1Cl 25.1 µM [inhibitor, single point]
O=c1oc2c3c4c(cc2c(C(F)(F)F)c1CCN1CCOCC1)CCCN4CCC3 100 µM [inhibitor, partial curve]
COc1cc2c(cc1OC)C(c1ccc3c(c1)OCO3)C1=C(CC(C)(C)CC1=O)N2 (centres undefined) 25.1 µM [inhibitor, partial curve, poor fit]
O=C(N/N=C/C1CC2CCC1C2)C1CC1 (centres undefined) 0.891 µM [inhibitor, full curve, poor fit]
O=C(O)CC1S/C(=N/N=C/c2ccc(-c3ccc(Cl)cc3[N+](=O)[O-])o2)NC1=O (centres undefined) 0.501 µM [inhibitor, partial curve]
CS(=O)(=O)Nc1nnc(C2CCCC2)s1 28.2 µM [inhibitor, single point]
CCN(CC)C(=O)N1c2ccccc2Sc2ccccc21 63.1 µM [inhibitor, partial curve, poor fit]
COCCCN1C(=O)C(=O)/C(=C(/O)c2ccc(OCC(C)C)cc2C)C1c1cccnc1 (centres undefined) 0.631 µM [inhibitor, full curve, poor fit]
O=C1/C(=C\c2cc(Cl)c(O)c(Cl)c2)SC(=S)N1Cc1ccccc1 10 µM [inhibitor, full curve]
O=C(CN1C2CCC1CC(NC(=O)Nc1ccccc1)C2)NCc1ccco1 (centres undefined) 15.8 µM [inhibitor, partial curve, poor fit]
CCC(CC)NC(=O)Cc1ccc(S(=O)(=O)N2CCOCC2)s1 25.1 µM [inhibitor, full curve]
CC(=O)c1ccc(NC(=O)c2ccc3c(Cl)c4c(nc3c2)CCCC4)cc1 0.708 µM [inhibitor, full curve, poor fit]
CC(CC(=O)N1CCN(C(=O)c2ccccc2)CC1)c1ccccc1 (centres undefined) 31.6 µM [inhibitor, single point]
CC(C)c1ccc2occ(CC(=O)N(Cc3ccc(F)cc3)C3CCS(=O)(=O)C3)c2c1 (centres undefined) 89.1 µM [inhibitor, single point]
Nc1nnc(SCC(=O)Nc2ccccc2N2CCOCC2)s1 79.4 µM [inhibitor, single point]

A stretch from further up, for reference:
Potency, inconclusive:
CCOC(=O)c1c(-c2ccccc2)csc1NC(=S)NC(=O)c1ccccc1 89.1 µM [inhibitor, single point]
CCOCCOC(=O)C1=C(C)NC2=C(C(=O)CC(c3cccs3)C2)C1c1ccsc1 (centres undefined) 35.5 µM [inhibitor, full curve]

Next part:

Potency, active:
O=C(Cc1ccccc1)N/N=C/c1ccc(OCC(=O)Nc2ccccc2)cc1 28.2 µM
CCc1ccccc1Nc1nn2c(=O)c3ccc(C(=O)NCc4cccs4)cc3nc2s1 8.91 µM
Cc1ccc(CNC(=O)c2cc3c(s2)-c2c(C)cccc2OC3)cc1 14.1 µM
COc1ccc(/C=N/NC(=O)c2ccc(NC(=O)c3cccc([N+](=O)[O-])c3)cc2)c(C(=O)O)c1OC 70.8 µM
COc1ccc(CCN2C(=O)/C(=C\c3ccco3)SC2=S)cc1OC 28.2 µM

Potency, inactive:
Oc1ccc(NCc2ccc(OCc3ccccc3)cc2)cc1

Activity change, negative = inhibition, inactive:
CNC(=O)c1cc2c(n(-c3ccc(C)cc3)c1=O)CC(C)(C)CC2=O 12.7%
O=C(CCCN1C(=O)/C(=C/c2cccs2)SC1=S)Nc1cccnc1 -24.2%
COc1ccc(CNC(=O)Cc2c(C)c3c(cc(C)c4c(C)c(C)oc43)oc2=O)cc1OC 9.32%
CCCCCCCNC(=O)c1cc(-c2ccncc2)nc2ccccc12 6.98%
CCC1(c2ccccc2)NC(=O)N(CC(=O)NCc2ccc(C)cc2)C1=O (centres undefined) 21.7%
CCOC(=O)c1c(NC(C)=O)c2c3c(sc2n1Cc1nc(-c2ccccc2Cl)oc1C)CCCC3 -5.34%
CC1CCN(C(=O)CCNS(=O)(=O)c2ccc(Cl)cc2)CC1 -6.4%
CCN=C1S/C(=C\c2ccc(N3CCOCC3)cc2C)C(=O)N1CC 30.2%
Cc1cc(C)cc(OCCCC(=O)O)c1 -24.7%
CCOc1ccc(CCNC(=O)C(CCC(N)=O)NC(=O)OCc2ccccc2)cc1OCC (centres undefined) 3.18%

Activity change, negative = inhibition, inconclusive:
COc1cccc(C(=O)Nc2ccc3oc(-c4ccc5ccccc5c4)nc3c2)c1 -51.7% [inhibitor]
COc1ccc(-n2c(C)cc(/C=C3\C(=N)N4N=C(CC(=O)N5CCOCC5)SC4=NC3=O)c2C)c(OC)c1 -124% [inhibitor]
